Experimental data from the supplement of paper PMC11546906.
The other results are listed elsewhere or left out. Repeats in this data set agree poorly, so a single value says little.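 Screen of FDA-approved drugs, each combined with colistin at one-eighth of its MIC, against a multidrug-resistant mcr-1-positive clinical E. coli isolate; growth read as OD600 after 24 h. Bacteria without drug were the growth control and plain broth the blank. A combination counted as active when OD600 fell below 0.2.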

System: Escherichia coli 42 (mcr-1-positive clinical isolate)
Test: OD600 after 24 h growth with compound plus colistin (absorbance units (OD600)); higher = more bacterial growth (less inhibition)
Conditions: first compound 25 µM; colistin concentration 0.5 ug/mL; incubation time 24 h; 37 °C

Row | Structure (SMILES) | OD600
1 | Oc1c(I)cc(Cl)c2cccnc12 [Clioquinol] + CCC(C)CCCC(=O)N[C@@H](CCN)C(=O)N[C@H](C(=O)N[C@@H](CCN)C(=O)N[C@H]1CCNC(=O)[C@H]([C@@H](C)O)NC(=O)[C@H](CCN)NC(=O)[C@H](CCN)NC(=O)[C@H](CC(C)C)NC(=O)[C@@H](CC(C)C)NC(=O)[C@H](CCN)NC1=O)[C@@H](C)O [colistin] | inactive: 0.975
2 | CC[C@H]1OC(=O)[C@H](C)[C@@H](O[C@H]2C[C@@](C)(OC)[C@@H](O)[C@H](C)O2)[C@H](C)[C@@H](O[C@@H]2O[C@H](C)C[C@H](N(C)C)[C@H]2O)[C@](C)(OC)C[C@@H](C)C(=O)[C@H](C)[C@@H](O)[C@]1(C)O [Clarithromycin] + CCC(C)CCCC(=O)N[C@@H](CCN)C(=O)N[C@H](C(=O)N[C@@H](CCN)C(=O)N[C@H]1CCNC(=O)[C@H]([C@@H](C)O)NC(=O)[C@H](CCN)NC(=O)[C@H](CCN)NC(=O)[C@H](CC(C)C)NC(=O)[C@@H](CC(C)C)NC(=O)[C@H](CCN)NC1=O)[C@@H](C)O [colistin] | active: 0.036
3 | CCN(CC)CC#CCOC(=O)C(O)(c1ccccc1)C1CCCCC1 (stereo not drawn) [Oxybutynin] + CCC(C)CCCC(=O)N[C@@H](CCN)C(=O)N[C@H](C(=O)N[C@@H](CCN)C(=O)N[C@H]1CCNC(=O)[C@H]([C@@H](C)O)NC(=O)[C@H](CCN)NC(=O)[C@H](CCN)NC(=O)[C@H](CC(C)C)NC(=O)[C@@H](CC(C)C)NC(=O)[C@H](CCN)NC1=O)[C@@H](C)O [colistin] | inactive: 1.04
